Laboratory results: PubChem BioAssay AID504744 (Drosophila RNAi Screening Center, 2011)
In all, the deposit lists about 23,000 reagents; this is a random part of those that have a named target and a result. Over the whole deposit, 98 (0.43%) got an active call. 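Only hit calls are given; the phospho-dAkt signals, z-scores and hit direction were not deposited.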

- Assay: 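Uncover factors, including feedback loops, that control dAkt activation in fly cells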 (primary screen)
- System: Drosophila Kc167 cells
- Reagent: long dsRNA against Drosophila genes, 250 ng dsRNA per well of a 384-well plate
- Duration: 3 days of knock-down, then overnight serum-free starvation before stimulation
- Treatment: bovine insulin at 387 nM for 10 minutes after 12 h without serum
- Measured: 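In-cell antibody fluorescence for phospho-dAkt in each well over DNA-dye signal, with log2 residuals expressed as z-scores adjusted for cell count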
- Rule for the call: 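Under insulin, a gene counts as a hit if the average z-score of two replicates lies above 2.5 or below -2.5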

For Pfas (GeneID 33847) [DRSC03480], the entry reads inactive.
Silencing of CG13737 (GeneID 39531) [DRSC10064] gave: inactive.
CG6574 (GeneID 41308) [DRSC16070] showed inactive.
With knock-down of Grik (GeneID 42476) [DRSC15846], the record shows inactive.
Depletion of Grik (GeneID 42476) [DRSC15847] gave: inactive.
For eRF3 (GeneID 34658) [DRSC03322] the deposit lists inactive.
After knock-down of CG8728 (GeneID 35748) [DRSC07251] the results were inactive.
Silencing of mld (GeneID 2768685) [DRSC13681] came out at: inactive.
For mld (GeneID 2768685) [DRSC14622], the values are inactive.
Depletion of mld (GeneID 2768685) [DRSC21771] came out at: inactive.
With knock-down of mRpS10 (GeneID 41838) [DRSC15557], the record shows inactive.
After knock-down of Dph2 (GeneID 41802) [DRSC16222], the screen gave inactive.
Against Mccc1 (GeneID 43750) [DRSC15417] the deposit lists inactive.
Knock-down of Elp1 (GeneID 41399) [DRSC14250] came out at: inactive.
CG16799 (GeneID 37340) [DRSC06626] gave inactive.
CG16799 (GeneID 37340) [DRSC21553] showed inactive.
After knock-down of TTLL3A (GeneID 33947) [DRSC02143], the record shows inactive.
With knock-down of tobi (GeneID 43072) [DRSC14435] the results were inactive.
Depletion of CG17260 (GeneID 33519) [DRSC00497] gave: inactive.
CG5225 (GeneID 42053) [DRSC15742] showed inactive.
With knock-down of Rpn7 (GeneID 42641) [DRSC16841] the results were inactive.
Depletion of Gbeta5 (GeneID 31744) [DRSC17754] resulted in: inactive.
With knock-down of dx (GeneID 31589) [DRSC18767], the screen gave inactive.
Knock-down of CG14418 (GeneID 31275) [DRSC18637] came out at: inactive.
Against CG4259 (GeneID 33385) [DRSC00645], the values are inactive.
Gr98a (GeneID 43305) [DRSC14719] scored inactive.
With knock-down of Ras64B (GeneID 38494) [DRSC08689] the results were inactive.
Cep164 (GeneID 32563) [DRSC20163] scored inactive.
Knock-down of mol (GeneID 34872) [DRSC01431] came out at: inactive.
Depletion of mol (GeneID 34872) [DRSC01912] came out at: inactive.
After knock-down of mol (GeneID 34872) [DRSC02479], the screen gave inactive.
Slc25A46b (GeneID 35081) [DRSC02888] showed inactive.
For P5cr-2 (GeneID 42106) [DRSC15889], the entry reads inactive.
With knock-down of GatA (GeneID 42283) [DRSC16956], the screen gave inactive.
wake (GeneID 42676) [DRSC16148] gave inactive.
Against wake (GeneID 42676) [DRSC16149], the entry reads inactive.
Silencing of CG11825 (GeneID 36099) [DRSC06090] gave: inactive.
Depletion of CG12926 (GeneID 35996) [DRSC06239] came out at: inactive.
With knock-down of CG12926 (GeneID 35996) [DRSC21930], the record shows inactive.
s-cup (GeneID 36371) [DRSC06277] scored inactive.
Against s-cup (GeneID 36371) [DRSC06278] the deposit lists inactive.
For Csgalnact (GeneID 36079) [DRSC06228], the entry reads inactive.
Lrrk (GeneID 42447) [DRSC15816] gave inactive.
Depletion of Lrrk (GeneID 42447) [DRSC21971] resulted in: inactive.
CG13358 (GeneID 31029) [DRSC18534] showed inactive.
After knock-down of ppk14 (GeneID 33887) [DRSC03238] the results were inactive.
For Gr10a (GeneID 117501) [DRSC18897], the entry reads inactive.
For Gr10a (GeneID 117501) [DRSC22792], the entry reads inactive.
With knock-down of SLIRP2 (GeneID 41021) [DRSC16363], the record shows inactive.
Against Lipt2 (GeneID 40565) [DRSC12338] the deposit lists inactive.
With knock-down of Lipt2 (GeneID 40565) [DRSC22610], the screen gave inactive.
Depletion of Spx (GeneID 31558) [DRSC18720] came out at: inactive.
et (GeneID 32975) [DRSC19582] gave inactive.
CG33339 (GeneID 2768681) [DRSC22917] scored inactive.
CG13871 (GeneID 37303) [DRSC06430] gave inactive.
Knock-down of Dscam3 (GeneID 42103) [DRSC14525] gave: inactive.
After knock-down of Dscam3 (GeneID 42103) [DRSC16376], the screen gave inactive.
